{"source": "PubChem BioAssay AID743121 (NCATS, 2013)", "purpose": "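Knock-downs that sensitise breast cancer cells to camptothecin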 (primary screen)", "cells": "MDA-MB-231 cells, a human breast cancer line", "reagents": "single siRNA against human genes, 20 nM siRNA (0.8 pmol per well)", "duration": "120 h (drug added 48 h after transfection, read 72 h later)", "conditions": "camptothecin 20 nM (about EC30) for 72 h; vehicle 0.1% DMSO in parallel plates", "measured": "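CellTiter-Glo ATP signal, scaled to control siRNA as percent viability; sensitisation given as log2 of untreated divided by camptothecin-treated viability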", "scale": "log2 vehicle/camptothecin viability: higher = stronger sensitisation to camptothecin", "hit rule": "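Active genes have an RSA gene-level p-value below 0.001, computed from the ratios of their separate siRNAs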", "note": "The deposit covers about 26,000 reagents; below is a random part of them. 167 of them (0.63%) were called active. 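Calls are per gene from RSA p-values that are not deposited; an individual active-marked siRNA can sensitise only weakly.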 The numbers tell different reagents against one gene apart. Further read-outs or replicates are left out here."}
{"Target gene": "CKS2", "reagent": 1, "log2 vehicle/camptothecin viability": -0.183, "outcome": "inactive"}
{"Target gene": "CKS2", "reagent": 2, "log2 vehicle/camptothecin viability": 0.352, "outcome": "inactive"}
{"Target gene": "CKS2", "reagent": 3, "log2 vehicle/camptothecin viability": -0.337, "outcome": "inactive"}
{"Target gene": "CKS2", "reagent": 4, "log2 vehicle/camptothecin viability": 0.283, "outcome": "inactive"}
{"Target gene": "SLC25A32", "reagent": 1, "log2 vehicle/camptothecin viability": -0.00279, "outcome": "inactive"}
{"Target gene": "SLC25A32", "reagent": 2, "log2 vehicle/camptothecin viability": 0.603, "outcome": "inactive"}
{"Target gene": "SLC25A32", "reagent": 3, "log2 vehicle/camptothecin viability": -0.0835, "outcome": "inactive"}
{"Target gene": "SLC25A32", "reagent": 4, "log2 vehicle/camptothecin viability": -0.0432, "outcome": "inactive"}
{"Target gene": "PRB3", "reagent": 1, "log2 vehicle/camptothecin viability": -0.548, "outcome": "inactive"}
{"Target gene": "PRB3", "reagent": 2, "log2 vehicle/camptothecin viability": -0.299, "outcome": "inactive"}
{"Target gene": "PRB3", "reagent": 3, "log2 vehicle/camptothecin viability": -0.462, "outcome": "inactive"}
{"Target gene": "PRB3", "reagent": 4, "log2 vehicle/camptothecin viability": 0.00107, "outcome": "inactive"}
{"Target gene": "SH3KBP1", "reagent": 1, "log2 vehicle/camptothecin viability": -0.0217, "outcome": "inactive"}
{"Target gene": "SH3KBP1", "reagent": 2, "log2 vehicle/camptothecin viability": 0.125, "outcome": "inactive"}
{"Target gene": "SH3KBP1", "reagent": 3, "log2 vehicle/camptothecin viability": -0.0446, "outcome": "inactive"}
{"Target gene": "SH3KBP1", "reagent": 4, "log2 vehicle/camptothecin viability": 0.143, "outcome": "inactive"}
{"Target gene": "DUSP1", "reagent": 1, "log2 vehicle/camptothecin viability": -0.326, "outcome": "inactive"}
{"Target gene": "DUSP1", "reagent": 2, "log2 vehicle/camptothecin viability": -0.139, "outcome": "inactive"}
{"Target gene": "DUSP1", "reagent": 3, "log2 vehicle/camptothecin viability": -0.317, "outcome": "inactive"}
{"Target gene": "DUSP1", "reagent": 4, "log2 vehicle/camptothecin viability": -0.113, "outcome": "inactive"}
{"Target gene": "RASD1", "reagent": 1, "log2 vehicle/camptothecin viability": -0.379, "outcome": "inactive"}
{"Target gene": "RASD1", "reagent": 2, "log2 vehicle/camptothecin viability": 1.52, "outcome": "inactive"}
{"Target gene": "RASD1", "reagent": 3, "log2 vehicle/camptothecin viability": 0.0541, "outcome": "inactive"}
{"Target gene": "RASD1", "reagent": 4, "log2 vehicle/camptothecin viability": -0.664, "outcome": "inactive"}
{"Target gene": "PLAAT3", "reagent": 1, "log2 vehicle/camptothecin viability": -0.229, "outcome": "inactive"}
{"Target gene": "PLAAT3", "reagent": 2, "log2 vehicle/camptothecin viability": -0.144, "outcome": "inactive"}
{"Target gene": "PLAAT3", "reagent": 3, "log2 vehicle/camptothecin viability": 0.108, "outcome": "inactive"}
{"Target gene": "PLAAT3", "reagent": 4, "log2 vehicle/camptothecin viability": -0.579, "outcome": "inactive"}
{"Target gene": "GDF3", "reagent": 1, "log2 vehicle/camptothecin viability": -0.445, "outcome": "inactive"}
{"Target gene": "GDF3", "reagent": 2, "log2 vehicle/camptothecin viability": -0.572, "outcome": "inactive"}
{"Target gene": "GDF3", "reagent": 3, "log2 vehicle/camptothecin viability": 0.0883, "outcome": "inactive"}
{"Target gene": "PPP2R2A", "reagent": 1, "log2 vehicle/camptothecin viability": -0.233, "outcome": "inactive"}
{"Target gene": "PPP2R2A", "reagent": 2, "log2 vehicle/camptothecin viability": -0.391, "outcome": "inactive"}
{"Target gene": "PPP2R2A", "reagent": 3, "log2 vehicle/camptothecin viability": 0.847, "outcome": "inactive"}
{"Target gene": "PPP2R2A", "reagent": 4, "log2 vehicle/camptothecin viability": 0.392, "outcome": "inactive"}
